Measurements reported in PubChem BioAssay AID1259283 (Sanger Institute, 2017).
Shown is one part, drawn at random, of 794 reagents tested. In the full data, 14 (1.8%) were called active. 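Calls reflect only viability loss without drug; drug synergy does not enter the call.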 A number with no mark means an inactive call. No viability above 1 is reported: the scale is capped. The record does not give: the amount of reagent, the time to read-out.

Test: 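Kinases whose silencing adds to targeted drugs in killing colon cancer cells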 (primary screen)
System: HT115 colorectal cancer cells
Reagents: siRNA pool against human genes
Treatment: anchor drug given one day after siRNA: BYL719 at 1 µM, cetuximab at 5 µg/ml, trametinib at 10 nM, or DMSO vehicle alone
Detection: 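Viability normalised to non-targeting pool #2 wells and averaged over replicates, robust z-score against control wells, and a synergy score for each of three drugs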
Direction: robust z-score, knock-down alone: higher = more viable cells after knock-down; viability, DMSO vs non-targeting control: higher = more viable cells; synergy score with BYL719 and synergy score with cetuximab and synergy score with trametinib: higher = stronger synergy with drug (synthetic lethal)
Active means: 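a gene counts as essential when its robust z-score with knock-down alone is below -3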
Calls: active = essential (z below -3, no drug); inactive = no change without drug

| gene | PubChem SID | robust z-score, knock-down alone | viability, DMSO vs non-targeting control (fraction of control) | synergy score with BYL719 | synergy score with cetuximab | synergy score with trametinib |
| --- | --- | --- | --- | --- | --- | --- |
| PLK4 (GeneID 10733) | SID152155543 | -2.78 | 0.67 | -0.209 | -0.0206 | 0.0619 |
| LIMK1 (GeneID 3984) | SID135621436 | 0.645 | 0.987 | -0.00423 | -0.00134 | 0.183 |
| IRAK2 (GeneID 3656) | SID152151590 | 0.284 | 0.953 | -0.0163 | -0.0353 | 0.00972 |
| FN3KRP (GeneID 79672) | SID56479164 | -0.807 | 0.852 | 0.0499 | 0.135 | 0.249 |
| EEF2K (GeneID 29904) | SID152154873 | -1.8 | 0.761 | -0.0719 | 0.0179 | -0.0538 |
| MST1R (GeneID 4486) | SID152152898 | 0.737 | 0.995 | 0.112 | 0.232 | 0.0722 |
| PTK6 (GeneID 5753) | SID152152810 | 0.185 | 0.944 | 0.0529 | 0.187 | 0.153 |
| SOX9 (GeneID 6662) | SID134325081 | -0.857 | 0.848 | -0.0981 | 0.0718 | 0.169 |
| PXK (GeneID 54899) | SID152149443 | -0.205 | 0.908 | 0.0118 | -0.0865 | -0.0343 |
| MED12 (GeneID 9968) | SID152147641 | 0.0744 | 0.934 | -0.0676 | 0.0331 | 0.025 |
| STK24 (GeneID 8428) | SID135620898 | 0.375 | 0.962 | -0.0598 | 0.0612 | 0.0662 |
| NEK6 (GeneID 10783) | SID56478779 | 0.789 | 1 | -0.0224 | -0.0203 | -0.128 |
| PRKAR2A (GeneID 5576) | SID152153424 | -0.259 | 0.903 | -0.0276 | 0.0368 | -0.00468 |
| MOS (GeneID 4342) | SID56478732 | -2.24 | 0.72 | -0.0604 | -0.109 | -0.0459 |
| AKT1 (GeneID 207) | SID135620599 | -1.16 | 0.82 | -0.0642 | -0.0349 | 0.0982 |
| MAST2 (GeneID 23139) | SID152154248 | 0.789 | 1 | -0.015 | 0.0626 | 0.134 |
| CRIM1 (GeneID 51232) | SID134313362 | 0.253 | 0.95 | 0.0749 | 0.177 | 0.229 |
| PIK3CD (GeneID 5293) | SID135621250 | 0.789 | 1 | -0.0224 | 0.0553 | -0.0335 |
| EGFR (GeneID 1956) | SID135620613 | 0.601 | 0.983 | 0.165 | 0.0903 | 0.103 |
| RPS6KL1 (GeneID 83694) | SID152155635 | 0.747 | 0.996 | 0.0151 | 0.16 | 0.151 |
| ADCK5 (GeneID 203054) | SID56479281 | -1.18 | 0.818 | -0.0868 | -0.0148 | -0.062 |
| STK35 (GeneID 140901) | SID135620978 | 0.789 | 1 | -0.0224 | 0.042 | 0.027 |
| EPHA8 (GeneID 2046) | SID135620615 | 0.789 | 1 | 0.0406 | -0.0435 | 0.0169 |
| MYLK2 (GeneID 85366) | SID56479029 | -2.66 | 0.681 | -0.0461 | -0.0379 | 0.105 |
| PI4K2B (GeneID 55300) | SID56479132 | -0.532 | 0.878 | -0.00409 | 0.0902 | 0.0866 |
| STK39 (GeneID 27347) | SID152151246 | -3.19 (active) | 0.632 | -0.0696 | -0.188 | 0.0431 |
| STK17B (GeneID 9262) | SID56478762 | 0.789 | 1 | 0.0975 | 0.0934 | 0.0897 |
| TRPM6 (GeneID 140803) | SID56478975 | 0.789 | 1 | -0.0224 | -0.0435 | 0.0203 |
| CERT1 (GeneID 10087) | SID56479254 | -0.345 | 0.895 | -0.0752 | -0.0386 | 0.155 |
| UHMK1 (GeneID 127933) | SID152150381 | 0.654 | 0.988 | 0.0303 | 0.113 | 0.0859 |
| FGFR2 (GeneID 2263) | SID152155469 | -0.177 | 0.911 | -0.046 | -0.129 | 0.138 |
| BRD4 (GeneID 23476) | SID152154839 | 0.789 | 1 | 0.0649 | 0.115 | 0.183 |
| PFKL (GeneID 5211) | SID56479167 | 0.789 | 1 | -0.00436 | 0.076 | -0.0285 |
| CDK19 (GeneID 23097) | SID56478856 | 0.789 | 1 | -0.00601 | 0.07 | 0.105 |
| ITPKC (GeneID 80271) | SID56479112 | 0.313 | 0.956 | 0.142 | 0.0633 | 0.0435 |
| PRKD3 (GeneID 23683) | SID56478959 | -1.03 | 0.832 | 0.0813 | 0.116 | 0.176 |
| BCR (GeneID 613) | SID152154242 | -1.82 | 0.759 | -0.0815 | -0.00981 | 0.0451 |
| WNK2 (GeneID 65268) | SID56479037 | 0.693 | 0.991 | 0.00238 | -0.0236 | -0.123 |
| GUCY2EP (GeneID 390226) | SID152152788 | -0.382 | 0.892 | 0.0772 | 0.0585 | 0.126 |
| MSR1 (GeneID 4481) | SID152150198 | 0.789 | 1 | -0.00958 | 0.09 | 0.049 |
| SCYL3 (GeneID 57147) | SID56479033 | -0.28 | 0.901 | -0.00759 | 0.0988 | 0.032 |
| TNK1 (GeneID 8711) | SID152152407 | 0.436 | 0.967 | 0.00777 | 0.0414 | -0.0484 |
| IRAK1 (GeneID 3654) | SID56478862 | -1.79 | 0.762 | 0.0383 | 0.0436 | 0.23 |
| STK36 (GeneID 27148) | SID135620924 | -0.0169 | 0.926 | -0.0457 | 0.15 | 0.244 |
| NF1 (GeneID 4763) | SID152155944 | -0.783 | 0.855 | 0.00667 | -0.0195 | -0.0397 |
| PIM1 (GeneID 5292) | SID56478736 | 0.58 | 0.981 | 0.0134 | -0.00283 | 0.283 |
| BRSK2 (GeneID 9024) | SID152155603 | 0.789 | 1 | -0.0224 | -0.0435 | -0.122 |
| PRKCB (GeneID 5579) | SID56478724 | 0.288 | 0.954 | 0.0505 | 0.116 | 0.109 |
| MELK (GeneID 9833) | SID56478756 | -0.135 | 0.915 | 0.0759 | -0.0316 | 0.011 |
| CAMKK1 (GeneID 84254) | SID135620905 | 0.397 | 0.964 | -0.0437 | -0.00998 | 0.149 |

Part of the list above in another layout:
gene | PubChem SID | robust z-score, knock-down alone | viability, DMSO vs non-targeting control (fraction of control) | synergy score with BYL719 | synergy score with cetuximab | synergy score with trametinib
MYLK2 (GeneID 85366) | SID56479029 | -2.66 | 0.681 | -0.0461 | -0.0379 | 0.105
PI4K2B (GeneID 55300) | SID56479132 | -0.532 | 0.878 | -0.00409 | 0.0902 | 0.0866
